Reference: US9932376B2, “Analogues of temporin-SHa and uses thereof” (UNIVERSITE PIERRE ET MARIE CURIE (PARIS 6), priority 2013, dated 2018)
Entries after “also recorded” stand apart in the source; their conditions may differ. At least one peptide structure holds a part that was inferred or is arguable (an end, a ring closure or a residue). Ends that are not written are not given here.

Assays:
Type in all cases: cell-based
[1] = test system: Leishmania infantum promastigotes (strain MHOM/MA/67/ITMAP-263); assay: Tests of anti-leishmanial activity on promastigotes expressing the luciferase; settings: result in words
Method: Leishmanicidal activity of peptides was evaluated on the promastigote form of Leishmania infantum (strain MHOM/MA/67/ITMAP-263), responsible for visceral leishmaniosis.
Promastigotes were maintained at 26° C. by one or two weekly passages, depending on the number of parasites in the inoculum, in SDM 79 medium supplemented with 10 to 20% decomplemented fetal calf serum and […] porcine hemin and in the presence of 100 U/mL penicillin and 100 μg/mL streptomycin (Brun et al., 1979). Starting from an inoculum of 10^5 cells/mL in logarithmic growth phase, the promastigotes reached a cell density of 1 to 2×10^8 parasites/mL in stationary phase after 5 days of culture in 25 cm^2 culture flasks. Cell densities were determined by flow cytometry in the presence of propidium iodide on a FAC Scan cytometer (Excalibur, Becton Dickinson, Ivry, France).
The tests of anti-leishmanial activity were carried out with a parasite line expressing the luciferase. This parasite line was obtained by transforming a Leishmania infantum strain with the vector pGM-αNEO-αLUC containing the reporter gene LUC that codes for the firefly luciferase, and the neomycin resistance gene (NEO) such as described in Roy et al. (2000).
80 μL of a promastigote suspension (10^5 parasites/well) were aliquoted into each well of a microtiter plate together with 20 μL of peptide solution (50 to 3.125 μM final concentration). For the negative control the peptide solution was replaced by 20 μL of SDM79 medium. The positive control was carried out with 20 μL of the solution with the highest peptide concentration. Experiments were done in triplicate for each peptide concentration.
After 72 hrs of incubation at 26° C., 50 μL of Steady-Glo lysis buffer (Promega) were added to each well. After a 5-min incubation at room temperature, cell lysis was checked under a microscope. Emitted luminescence was measured with a luminescence plate reader (Victor, PerkinElmer). It is proportional to the number of viable parasites in the medium. The percentage growth was calculated according to the following formula: % growth=[(L mean−bgd)peptide×100]/(L mean−bgd)negative control
where L mean: mean luminescence and bgd: background corresponding to the luminescence emitted by the culture medium. The concentration inhibiting promastigote growth by 50% (IC50) was determined.

[2] = test system: Pseudomonas aeruginosa (ATCC 27853); assay: Tests of antibacterial activity (growth inhibition in broth medium); settings: relative to temporin-SHa
yeasts = assay: Tests of antifungal activity (growth inhibition in YPD broth medium, MIC); settings: relative to temporin-SHa
Method: Three yeast strains were used: Saccharomyces cerevisiae, Candida albicans (ATCC 90028), Candida parapsilosis (ATCC 22019). These strains were first grown on YPD agar for a minimum of 48 hrs. Yeast suspensions were then prepared, exactly as for bacteria, and adjusted to 10^6 cfu/mL in YPD broth medium.
The antifungal activity test corresponds to the growth inhibition test in broth medium used for the bacteria (see above) in which MH medium was replaced by YPD medium. Fungal strains were incubated at 30° C.

[3] = test system: Candida parapsilosis (ATCC 22019); assay: Tests of antifungal activity (growth inhibition in YPD broth medium); settings: relative to temporin-SHa
[4] = test system: Candida albicans (ATCC 90028); assay: as above; settings: relative to temporin-SHa
[5] = test system: Gram-positive and Gram-negative bacterial strains; settings: bacteria and yeasts tested; result in words
From the text: The following strains were used for the antibacterial activity tests: Escherichia coli (ATCC 25922 and ML-35p), Staphylococcus aureus (ATCC 25923 and ST1065), Enterococcus faecalis (ATCC 29212), Pseudomonas aeruginosa (ATCC 27853), Streptococcus pyogenes (ATCC 19615), Listeria ivanovii, Salmonella enterica (serotype Enteritidis), Acinetobacter baumannii (ATCC 19606) and Klebsiella pneumoniae (ATCC 13883). Two antibiotic-resistant strains were also used (S. aureus ATCC 43300 and ATCC BAA-44).
For each strain, a standard inoculum of approximately 10^6 bacteria/mL (exponential growth phase) was prepared. To this end, a colony isolated on LB agar previously inoculated with one of the strains was cultured in 4 mL of LB broth medium, except for S. pyogenes and L. ivanovii, which were grown in BHI (Brain Heart Infusion) from a colony isolated on BHI agar. Liquid cultures were then incubated for 2 to 3 hrs at 37° C. with shaking for the bacteria to reach exponential growth phase. […]
The minimum inhibitory concentration (MIC) of each peptide was determined by a test of growth inhibition in broth medium. […] Bacterial growth was determined by measuring OD at 630 nm (turbidity) on a plate reader. […]

| Substance | anti-leishmanial activity on L. infantum promastigotes (in words) [1] | fold more active than temporin-SHa against P. aeruginosa [2] | fold more active than temporin-SHa against Candida (yeasts) | fold more active than temporin-SHa against C. parapsilosis [3] | fold more active than temporin-SHa against C. albicans [4] | antimicrobial activity (in words) [5] |
| --- | --- | --- | --- | --- | --- | --- |
| FLKGIKGMLGKLF-NH2 [[K^3,K^6]temporin-SHa, F-L-K-G-I-K-G-M-L-G-K-L-F] | approaches the cytotoxicity level of monocytes | 4 fold | 2 fold |  |  |  |
| FLKGIVGKLGKLF-NH2 [[K^3,K^8]temporin-SHa, F-L-K-G-I-V-G-K-L-G-K-L-F] | approaches the cytotoxicity level of monocytes | 4 fold | 2 fold |  |  |  |
| FLKGIVGKLGKLL-NH2 [[K^3, K^8,L^13]temporin-SHa, F-L-K-G-I-V-G-K-L-G-K-L-L] |  | 4 fold | 2 fold |  |  |  |
| FLKGIVGMLGKLL-NH2 [[K^3,L^13]temporin-SHa, F-L-K-G-I-V-G-M-L-G-K-L-L] | little altered; also recorded: moderate leishmanicidal activity |  |  |  |  |  |
| FLKGIVGMLGKLW-NH2 [[K^3,W^13]temporin-SHa, F-L-K-G-I-V-G-M-L-G-K-L-W] | little altered; also recorded: moderate leishmanicidal activity |  |  |  |  |  |
| KGIVGMLGKLF-NH2 [[K^3]temporin-SHa(3-13)] |  | 2 fold |  | 2 fold | 2 fold | conserve an activity |
